From patent US20250115680A1 (PROFOUNDBIO US, published 2025) come the findings set out here.

No constants are given. Whether binding was seen depends on the method and setting. Some entries that bind do so weakly or less than the wild type.

B1: murine antibody m2C8 (antibody, V domains shown)
VH: QIQLVQSGPELKKPGETVKISCKASGYTFTTYGMSWVKQAPGKGLKWMGWINTHSGVPTYVDEFKGRSAFSLETSASTAYLQINNLKNEDTATYFCARSPFDYGSRGAWFVYWGQGTLVTVSS
VL: DVLMTQTPLSLPVSLGDQASISCRSSQSIVHNNGDTYLEWYLQKPGQSPKLLIYKVSNRFPGVPDRFSGSGSGTDFTLKISRVEAEDLGLYYCFQGSHVPWTFGGGTKLEIK
notes: Mouse hybridoma clone, tested as culture supernatant
B2: murine antibody m13C4 (antibody, V domains shown)
VH: EVKLVESGGGLVKPGGSLKLSCAASGFAFSTYDMFWFRQTPEKRLEWVATISSGGGYTYYPGSVKGRFTISRDNARNTLYLQMSSLRSEDTALYYCVRPLLRDSYFYFDVWGAGTTVTVSS
VL: DIVMTQSPAIMSTSPGEKVTMTCRASSSVSSSYLHWYQQKSGASPKLWIFRTSNLASGVPARFSGSGSGTSYSLTISSVEAEDAATYYCQQYSGYPLTFGAGTKLELK
notes: as for B1
B3: murine antibody m2C5 (antibody, V domains shown)
VH: EVQLLSSGPELVTPGASVKISCKASGYTFTDYYINWLKQSHGKSLEWIGDINPNSGGPVYNQKFMAKATLTVDKTSNTAYMELRSLTSEDSAVYYCARGDYYGSNYNYWGQGTTLTVSS
VL: DILLTQSPAILSVSPGERVSFSCRASQNIGTSIHWYQQRTNGSPRLLIKFASESISGIPSRFSGSGSGTDFALTINSVESEDIADYYCQQSNNWPYTFGGGTKLEIK
notes: as for B1

The target in the experiment is cynomolgus PTK7 extra-cellular domain (ECD) linked to His tag (cynomolgus monkey). The experiment can be described thus: ELISA screening of hybridoma supernatants on cynomolgus PTK7-his. On the technique in general: ELISA stands for enzyme-linked immunosorbent assay.
Regarding B1, the binding result was “binds”.

Consider B2, for which the binding result is “binds”.

In the case of B3, the binding result is recorded as “binds”.
